Binding data for two molecules are collected here from article PMC3549492.

In this experiment the target is porcine MTs (microtubules) (porcine). The experiment can be described thus: cross-linking; BS3 (1 mM, 100-fold excess); 10 μM each of Dcx, Kif1a and MTs; 4 mM ATP; BRB80 pH 6.9; room temperature; SDS-PAGE, silver staining, protein identification by mass spectrometry; both purified.

Results are given in words; binding and its absence hold for the method and conditions named. Binding calls can cover weak binding; strength is not graded here. Where a sequence is shown, tags or fusion partners need not be part of it.

B1: overexpressed and purified full-length human Dcx (protein, UniProt O43602 1-365)
chain: MELDFGHFDERDKTSRNMRGSRMNGLPSPTHSAHCSFYRTRTLQALSNEKKAKKVRFYRNGDRYFKGIVYAVSSDRFRSFDALLADLTRSLSDNINLPQGVRYIYTIDGSRKIGSMDELEEGESYVCSSDNFFKKVEYTKNVNPNWSVNVKTSANMKAPQSLASSNSAQARENKDFVRPKLVTIIRSGVKPRKAVRVLLNKKTAHSFEQVLTDITEAIKLETGVVKKLYTLDGKQVTCLHDFFGDDDVFIACGPEKFRYAQDDFSLDENECRVMKGNPSATAGPKASPTPQKTSAKSPGPMRRSKSPADSGNDQDANGTSSSQLSTPKSKQSPISTPTSPGSLRKHKDLYLPLSLDDSDSLGDSM
For the molecule B1, the binding result is listed as “binds”.

B2: N-terminal HaloTag human KIF1A (amino acids 1-361) fusion protein (domain or fragment, UniProt Q12756 1-361)
chain: MAGASVKVAVRVRPFNSREMSRDSKCIIQMSGSTTTIVNPKQPKETPKSFSFDYSYWSHTSPEDINYASQKQVYRDIGEEMLQHAFEGYNVCIFAYGQTGAGKSYTMMGKQEKDQQGIIPQLCEDLFSRINDTTNDNMSYSVEVSYMEIYCERVRDLLNPKNKGNLRVREHPLLGPYVEDLSKLAVTSYNDIQDLMDSGNKARTVAATNMNETSSRSHAVFNIIFTQKRHDAETNITTEKVSKISLVDLAGSERADSTGAKGTRLKEGANINKSLTTLGKVISALAEMDSGPNKNKKKKKTDFIPYRDSVLTWLLRENLGGNSRTAMVAALSPADINYDETLSTLRYADRAKQIRCNAVIN
Regarding B2, the binding entry was “binds”.
